# Values quoted from earlier work, collected in US6977083B1, “Bioadhesive tablet containing testosterone/testosterone ester mixtures and method for producing a predetermined testosterone time-release profile with same” (Jenapharm GmbH & Co. KG, priority 1998, dated 2005).
# At least one read-out could not be matched to a standard name with certainty. Some entries repeat one wording, which the source may state once for all of them. For at least one compound, name, drawing or mass did not settle the structure.
# Conditions: six castrated beagle dogs, buccal bioadhesive tablet, esters directly compressed after dry mixing
row,SMILES,bioavailability compared with testosterone
1,CCCCCCCCCC(=O)O[C@H]1CC[C@H]2[C@@H]3CCC4=CC(=O)CC[C@]4(C)[C@H]3CC[C@]12C [testosterone decanoate],did not show a higher bioavailability than testosterone
2,CCCCCCC(=O)O[C@H]1CC[C@H]2[C@@H]3CCC4=CC(=O)CC[C@]4(C)[C@H]3CC[C@]12C [testosterone enantate],did not show a higher bioavailability than testosterone
3,CCC(=O)O[C@H]1CC[C@H]2[C@@H]3CCC4=CC(=O)CC[C@]4(C)[C@H]3CC[C@]12C [testosterone propionate],did not show a higher bioavailability than testosterone
